Results taken from paper doi:10.1101/2023.03.30.23287962.
Results are given in words; binding and its absence hold for the method and conditions named. In cells and extracts the contact can be indirect. Some results given as binding are weak or reduced against the parent protein; the word gives no strength.

Amino acid sequences for entries named in this document (tags omitted).
UniProt Q8TAQ2: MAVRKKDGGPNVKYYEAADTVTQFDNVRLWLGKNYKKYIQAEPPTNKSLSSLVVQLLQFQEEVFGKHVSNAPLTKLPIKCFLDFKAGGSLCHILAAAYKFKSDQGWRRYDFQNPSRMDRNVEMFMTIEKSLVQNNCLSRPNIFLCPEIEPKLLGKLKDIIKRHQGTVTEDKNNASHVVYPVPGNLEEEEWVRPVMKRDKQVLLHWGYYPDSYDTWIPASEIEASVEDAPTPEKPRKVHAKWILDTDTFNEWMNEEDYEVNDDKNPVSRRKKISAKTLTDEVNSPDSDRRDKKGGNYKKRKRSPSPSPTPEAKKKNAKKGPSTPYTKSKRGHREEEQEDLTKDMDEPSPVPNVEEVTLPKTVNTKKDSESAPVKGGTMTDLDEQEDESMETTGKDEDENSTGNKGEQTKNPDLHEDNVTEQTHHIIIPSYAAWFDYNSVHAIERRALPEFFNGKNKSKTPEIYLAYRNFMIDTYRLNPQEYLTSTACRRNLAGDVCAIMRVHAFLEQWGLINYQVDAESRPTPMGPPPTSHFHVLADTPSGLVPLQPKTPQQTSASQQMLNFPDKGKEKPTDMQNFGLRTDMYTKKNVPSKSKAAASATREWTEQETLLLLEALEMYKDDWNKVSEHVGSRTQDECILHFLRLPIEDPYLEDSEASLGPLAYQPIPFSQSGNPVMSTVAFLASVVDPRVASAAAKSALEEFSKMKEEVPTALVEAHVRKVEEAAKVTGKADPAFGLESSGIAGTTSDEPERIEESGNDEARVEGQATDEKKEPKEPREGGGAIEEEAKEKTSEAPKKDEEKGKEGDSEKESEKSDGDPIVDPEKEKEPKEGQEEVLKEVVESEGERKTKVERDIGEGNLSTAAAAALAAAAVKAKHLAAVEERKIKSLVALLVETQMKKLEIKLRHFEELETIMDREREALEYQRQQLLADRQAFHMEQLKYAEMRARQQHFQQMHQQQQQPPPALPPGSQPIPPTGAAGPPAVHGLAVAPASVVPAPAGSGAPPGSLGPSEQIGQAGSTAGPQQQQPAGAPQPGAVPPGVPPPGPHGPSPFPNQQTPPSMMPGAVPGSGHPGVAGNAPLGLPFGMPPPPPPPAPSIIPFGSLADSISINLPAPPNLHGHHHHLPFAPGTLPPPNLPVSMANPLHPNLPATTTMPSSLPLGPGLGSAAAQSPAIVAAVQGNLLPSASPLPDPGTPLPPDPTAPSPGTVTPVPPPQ
UniProt P51532: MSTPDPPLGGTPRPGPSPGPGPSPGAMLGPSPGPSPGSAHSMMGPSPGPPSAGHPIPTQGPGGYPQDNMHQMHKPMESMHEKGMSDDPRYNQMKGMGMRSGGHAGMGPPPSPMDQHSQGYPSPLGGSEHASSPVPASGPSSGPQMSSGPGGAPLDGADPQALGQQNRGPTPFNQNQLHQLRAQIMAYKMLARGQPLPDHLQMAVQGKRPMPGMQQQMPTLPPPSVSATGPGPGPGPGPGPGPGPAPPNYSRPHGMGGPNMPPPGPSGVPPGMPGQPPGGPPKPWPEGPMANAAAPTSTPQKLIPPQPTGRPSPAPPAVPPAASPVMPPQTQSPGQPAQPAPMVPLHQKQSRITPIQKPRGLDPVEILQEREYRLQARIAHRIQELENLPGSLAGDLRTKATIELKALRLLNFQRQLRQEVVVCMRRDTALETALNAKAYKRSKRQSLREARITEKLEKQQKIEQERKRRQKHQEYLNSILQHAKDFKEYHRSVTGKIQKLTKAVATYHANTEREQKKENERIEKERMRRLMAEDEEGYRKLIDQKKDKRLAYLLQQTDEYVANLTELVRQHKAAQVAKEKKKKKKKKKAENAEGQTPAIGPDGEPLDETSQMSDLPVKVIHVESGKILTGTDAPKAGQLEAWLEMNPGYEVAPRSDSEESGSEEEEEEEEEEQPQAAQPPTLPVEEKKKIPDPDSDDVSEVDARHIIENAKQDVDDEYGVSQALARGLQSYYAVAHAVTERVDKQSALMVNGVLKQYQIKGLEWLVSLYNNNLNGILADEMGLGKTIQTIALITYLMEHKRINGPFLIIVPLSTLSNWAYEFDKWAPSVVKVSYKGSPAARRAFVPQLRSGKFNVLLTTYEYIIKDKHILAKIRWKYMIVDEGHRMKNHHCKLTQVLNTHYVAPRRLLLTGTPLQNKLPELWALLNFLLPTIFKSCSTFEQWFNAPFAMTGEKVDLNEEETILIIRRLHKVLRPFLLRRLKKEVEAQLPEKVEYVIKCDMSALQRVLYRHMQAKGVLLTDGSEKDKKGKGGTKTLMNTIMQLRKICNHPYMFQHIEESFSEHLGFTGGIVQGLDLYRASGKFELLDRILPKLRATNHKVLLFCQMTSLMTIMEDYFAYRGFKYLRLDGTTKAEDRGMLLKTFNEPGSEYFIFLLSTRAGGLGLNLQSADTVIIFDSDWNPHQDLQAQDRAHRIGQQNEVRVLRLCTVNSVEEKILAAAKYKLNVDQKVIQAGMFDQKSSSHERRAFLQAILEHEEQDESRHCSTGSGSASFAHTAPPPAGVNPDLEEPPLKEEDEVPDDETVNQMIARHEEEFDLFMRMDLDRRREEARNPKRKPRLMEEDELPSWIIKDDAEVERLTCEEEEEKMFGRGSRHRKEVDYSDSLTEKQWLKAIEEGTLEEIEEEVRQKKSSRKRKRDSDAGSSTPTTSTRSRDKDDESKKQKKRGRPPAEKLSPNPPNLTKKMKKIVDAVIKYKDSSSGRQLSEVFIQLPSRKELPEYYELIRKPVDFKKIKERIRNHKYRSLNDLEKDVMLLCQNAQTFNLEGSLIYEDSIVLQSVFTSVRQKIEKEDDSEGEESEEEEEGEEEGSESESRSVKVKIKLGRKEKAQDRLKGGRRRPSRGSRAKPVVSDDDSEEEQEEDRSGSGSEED

Assays:
[1] = biological target: FLAG-tagged SMARCC2 (wildtype) (human) (UniProt Q8TAQ2); assay: co-IP
[2] = biological target: FLAG-tagged SMARCC2 (wildtype) (human) (UniProt Q8TAQ2); assay: proximity ligation

SMARCA4 (from UniProt P51532 1-1647)
binding [1]: binds | binding [2]: binds
